Consider 80 molecules from PMC12040169 (PLOS Biology, 2025).

Some of the results follow.

The test system of the test is T1, CTL2-GFP (C. trachomatis L2/434/Bu, GFP-expressing).
T1 construct: L2/434/Bu, GFP-expressing
Set-up: species or system HeLa; Intracellular C. trachomatis growth in HeLa cells, bulk GFP fluorescence relative to DMSO. Conditions: bulk GFP, single well; 28.5 h, 10 µM; inhibitor.
On to `Cc1ccc(Cl)c(OC(C)C(=O)N2CCC(CC(N)=O)CC2)c1` (centres unmarked) [CBK305762], for which the “% of control remaining” value stood at 129.718%.

`Clc1ccc(-c2ccc(N3CCN(CCN4CCCC4)CC3)nc2)cc1` [CBK037623]: the “% of control remaining” value is listed as 166.007%.

Take `CN(C)CC(O)CN1C(=O)NC(C)(C)C1=O` (centres unmarked) [CBK027078]: the “% of control remaining” value is recorded as 121.419%.

Consider `OCC1CCCN1c1nccnc1-c1ccoc1` (centres unmarked) [CBK089057], for which the “% of control remaining” value was determined as 180.875%.

Take `O=C(O)CC(C(=O)Nc1ccccc1)N1CCOCC1` (centres unmarked) [CBK287182]: the “% of control remaining” value was 88.4854%.

In the case of `O=C1Nc2ccccc2C12CC(c1ccccc1Cl)=NN2` (centres unmarked) [CBK288004], the “% of control remaining” value is 88.276%.

Take `O=C(CSc1nnc(-c2ccncc2)n1-c1ccccc1)N/N=C/c1coc2ccccc2c1=O` [CBK262866]: the “% of control remaining” value turned out to be 118.57%.

In the case of `Cc1nc2cc(C(=O)NCC(C)(C)N3CCCCC3)ccc2n1C` [CBK281862], the “% of control remaining” value came out at 156.424%.

With `CCn1nc(C)cc1C(=O)N1Cc2cnn(Cc3ccc(F)cc3)c2C1` [CBK306574], the “% of control remaining” value came to 116.819%.

On to `O=C1CCc2cc(S(=O)(=O)NC(c3ccccc3)c3ccccc3)cc3c2N1CCC3` [CBK294418], for which the “% of control remaining” value was 111.074%.

Regarding `COCC1CCN(c2c(F)cc(C#N)cc2F)CC1` [CBK306244], the “% of control remaining” value was 106.101%.

Consider `O=C(O)CNC(=O)CN1C(=O)c2cc(Cl)c(Cl)cc2C1=O` [CBK287156], for which the “% of control remaining” value is reported as 124.686%.

Take `O=C(O)c1cccc(-c2nc(-c3ccc(S(=O)(=O)N4CCOCC4)cc3)cs2)c1` [CBK297730]: the “% of control remaining” value worked out at 124.908%.

Regarding `CCc1cc(C(=O)OC)c(NC(=O)C2C3C=CC(C3)C2C(=O)O)s1` (centres unmarked) [CBK270315], the “% of control remaining” value worked out at 112.217%.

Turning to `CC(C)NC(=O)c1sc2ccccc2c1C1CCN(C(=O)COc2ccccc2)C1` (centres unmarked) [CBK285875], the “% of control remaining” value was 116.463%.

Take `Cc1cc(C)n2nc(C(=O)N3CCCC34CC=CC4)cc2n1` [CBK282815]: the “% of control remaining” value is on record as 137.766%.

As to `OCCc1ccc(Oc2ncc(C(F)(F)F)cc2Cl)cc1` [CBK161643], the “% of control remaining” value was 131.643%.

Take `CC(Cc1cccs1)NC(=O)C(C)Cn1cccn1` (centres unmarked) [CBK283250]: the “% of control remaining” value is given as 129.952%.

For the molecule `COC(=O)c1cc(OC)c(OC)cc1NC(=O)C1CCC1C(=O)O` (centres unmarked) [CBK057084], the “% of control remaining” value amounted to 122.569%.

Take `Cc1ccc(-c2nnc(CNC(=O)Cc3ccccc3F)o2)s1` [CBK284644]: the “% of control remaining” value is on record as 136.347%.

As to `Cn1cnnc1CCC(=O)NCC1CCN(c2ccccc2F)C1` (centres unmarked) [CBK307587], the “% of control remaining” value came to 164.033%.

As to `COc1cccc(CCNC(=O)CCN2C(=O)CCC2=O)c1` [CBK023150], the “% of control remaining” value stood at 136.339%.

With `Cc1nc(S(=O)(=O)CC2CCCO2)n(CC(C)C)c1C` (centres unmarked) [CBK304882], the “% of control remaining” value was 86.2508%.

Take `CCc1nc2c(OCCOC)cccn2c1N(CCOC)C(C)=O` [CBK147845]: the “% of control remaining” value was 149.015%.

`CCc1nc2cc(NC(=O)c3cc(C4CC4)nn3C)ccc2n1C` [CBK283275]: the “% of control remaining” value is recorded as 122.5%.

As for `CC1=NN(C(=O)CSCc2ccccc2)C(O)(c2ccc(Cl)cc2)C1` (centres unmarked) [CBK267136], the “% of control remaining” value stood at 133.915%.

For `O=C(Nc1ccccn1)c1nccnc1-c1ccc(COc2ccccc2)cc1` [CBK050835], the “% of control remaining” value turned out to be 132.676%.

As to `O=C1NC2=C(C(=O)N(CCN3CCCC3)C2)C(c2cccc(F)c2)N1` (centres unmarked) [CBK282365], the “% of control remaining” value was determined as 93.896%.

For the molecule `O=C(Nc1ccccc1N1CCNCC1)c1cccs1` [CBK029443T], the “% of control remaining” value turned out to be 115.59%.

Consider `Cc1ccc(S(=O)(=O)Cc2ccc(C(=O)Nc3cccc(-c4cnc5ccccc5n4)c3)cc2)cc1` [CBK268589], for which the “% of control remaining” value is given as 147.783%.

Regarding `Cn1nc(C2CCN(C(=O)c3cccc(F)c3)CC2)c2cccnc21` [CBK284898], the “% of control remaining” value turned out to be 140.84%.

`Cc1ccc2c(c1)C(C[C@H]1CN(C(=O)c3ccco3)CC[C@H]1CC(=O)O)=NCC2` [CBK289162]: the “% of control remaining” value amounted to 139.915%.

On to `c1ccc(-c2nc(N3CCOCC3)n3ccccc23)cc1` [CBK014407], for which the “% of control remaining” value is reported as 139.005%.

For `Cc1csc(C(Cc2ccsc2)NC(=O)C2CC3C=CC2O3)n1` (centres unmarked) [CBK285108], the “% of control remaining” value was determined as 110.469%.

With `COC(=O)CC(NC(=O)c1cccc(NC(C)=O)c1)c1cccs1` (centres unmarked) [CBK304537], the “% of control remaining” value is recorded as 135.123%.

Regarding `C=Cn1cc(CN2CCCN(Cc3cccc(F)c3)CC2)c(C)n1` [CBK282594], the “% of control remaining” value is listed as 111.842%.

For the molecule `O=C(Nc1cc(Cl)ccc1Cl)C1CN(S(=O)(=O)c2ccccc2)CCN1S(=O)(=O)c1ccccc1` (centres unmarked) [CBK267004], the “% of control remaining” value worked out at 115.794%.

In the case of `COc1cc(CN2CCC[C@@H]2CN2CCCC2)cc(OC)c1OC` [CBK149100], the “% of control remaining” value stood at 122.769%.

As for `CC(=O)Nc1ccc(S(=O)(=O)N(c2ccc(C(C)(C)C)cc2)C2CCNCC2)cc1` [CBK165062T], the “% of control remaining” value was 100%.

For `N#CCCCN1CCC(Oc2nccnc2OCc2ccc(Cl)cc2Cl)CC1` [CBK161568], the “% of control remaining” value is 108.62%.

Regarding `Cc1cc(C)c(CNC(=O)N(C)C(C)c2ccncn2)cn1` (centres unmarked) [CBK307192], the “% of control remaining” value is listed as 124.081%.

Regarding `O=c1c2c3c(sc2ncn1CC(O)CO)CCCC3` (centres unmarked) [CBK269448], the “% of control remaining” value amounted to 120.728%.

With `CC1CCN(Cc2c(-c3cccnc3)[nH]c3cccnc23)CC1` [CBK281494], the “% of control remaining” value worked out at 135.387%.

`CC1(C)CC(=O)c2sc(NC(=O)c3cccc(N4C(=O)CCC4=O)c3)nc2C1` [CBK287565]: the “% of control remaining” value is on record as 91.7651%.

As for `Cn1cc(CC(=O)NCc2ccccc2)c2ccccc21` [CBK200200], the “% of control remaining” value was determined as 109.246%.

In the case of `CN1C(=O)COc2ccccc2CCCC[C@@H]2[C@H]1CCCN2CC(N)=O` [CBK292098], the “% of control remaining” value was 116.695%.

In the case of `Cc1cc2c(cc1C)C(=O)CC1(CCN(C(=O)c3ccco3)CC1)O2` [CBK282819], the “% of control remaining” value is 117.717%.

`O=C1CC(C(=O)Nc2ncccn2)C(c2ccccc2)O1` (centres unmarked) [CBK265130]: the “% of control remaining” value worked out at 109.014%.

`C=Cn1ncc(CN(CCCN(C)C)Cc2ccco2)c1C` [CBK283228]: the “% of control remaining” value amounted to 126.527%.

Regarding `COC(=O)c1cc(C(=O)CSc2nc(N)cc(O)n2)ccc1O` [CBK110407], the “% of control remaining” value was 97.7072%.

On to `CS(=O)(=O)N1CC2(CCN(CC(N)=O)CC2)c2ccccc21` [CBK126678], for which the “% of control remaining” value stood at 120.769%.

On to `N/C(Cc1ccc(Cl)cc1Cl)=N\OC(=O)c1cccc([N+](=O)[O-])c1` [CBK264317], for which the “% of control remaining” value amounted to 122.762%.

In the case of `c1ccc(CCN2CCC(n3cnc4cccnc43)CC2)cc1` [CBK283581], the “% of control remaining” value worked out at 135.319%.

Regarding `CCC(CO)Nc1cncc(-c2cccc(/C=C/C(=O)O)c2)n1` (centres unmarked) [CBK065569], the “% of control remaining” value stood at 90.3583%.

For the molecule `O=C(Nc1ccc(N2CCNCC2)nc1)C1(c2ccccc2)CCCCC1` [CBK028269T], the “% of control remaining” value stood at 130.112%.

In the case of `Cc1ccc2nsnc2c1NC(=O)COc1ccccc1F` [CBK269420], the “% of control remaining” value stood at 128.146%.

With `COc1ccc(-c2noc([C@@H]3Cc4[nH]cnc4CN3C(=O)Nc3ccc(C)cc3)n2)cc1` [CBK288968], the “% of control remaining” value was found to be 99.6027%.

`COc1cc(CN2CCN(Cc3ccncc3)CC2)cc(OC)c1O` [CBK263401]: the “% of control remaining” value was determined as 121.515%.

With `O=C(Cc1c[nH]cn1)N1CCN(c2ncccn2)CC1` [CBK144527], the “% of control remaining” value came out at 126.979%.

As for `O=C1CSC2(C(=O)Nc3ccc(Br)cc32)N1c1cccc([N+](=O)[O-])c1` (centres unmarked) [CBK093451], the “% of control remaining” value came out at 89.3268%.

As for `COc1ccc(Nc2ccc(-c3ccc4ccccc4c3)cn2)cn1` [CBK037744], the “% of control remaining” value was 126.242%.

As for `NC(=O)CN1CCC(Oc2nccnc2OCC2COc3ccccc3O2)CC1` (centres unmarked) [CBK082987T], the “% of control remaining” value is 137.039%.

Turning to `COc1cccc(C(=O)Oc2ccc3c(=O)c(-c4nc5ccccc5s4)c(C)oc3c2)c1` [CBK265540], the “% of control remaining” value is recorded as 136.456%.

With `COc1ccc(-c2cc(C(=O)N3CCN(C(C)=O)CC3)cnc2-c2ccc(Cl)cc2)cc1` [CBK037577], the “% of control remaining” value was 123.883%.

For `Cn1c(=O)c2c(nc(NCCO)n2CCc2ccccc2)n(C)c1=O` [CBK267497], the “% of control remaining” value came out at 119.279%.

Take `CC(=O)Nc1c(C)ccc(S(=O)(=O)N2CCOCC2)c1C` [CBK034327]: the “% of control remaining” value is listed as 130.712%.

With `Nc1nn2c(-c3cccc(Cl)c3)nnc2s1` [CBK288122], the “% of control remaining” value is given as 154.384%.

On to `Clc1nc2ccccc2nc1N1CCNCC1` [CBK003880], for which the “% of control remaining” value amounted to 111.827%.

Turning to `CCOCCCNc1nc2c(c(=O)[nH]c(=O)n2C)n1CCC(C)C` [CBK287968], the “% of control remaining” value is reported as 155.206%.

Consider `Cc1ncc([N+](=O)[O-])n1CC(=O)NC1CCCCCC1` [CBK269194], for which the “% of control remaining” value was determined as 147.229%.

On to `COc1ccccc1-c1nccnc1OCc1cccs1` [CBK106819], for which the “% of control remaining” value amounted to 106.406%.

Take `CC(C)(C)NC(=O)Cn1cncc1-c1cnn(-c2ccccc2)c1` [CBK281697]: the “% of control remaining” value turned out to be 80.8023%.

Turning to `COC(=O)c1cccn2cc(CN3CCOC4CCCCC43)nc12` (centres unmarked) [CBK304949], the “% of control remaining” value turned out to be 106.939%.

As for `O=c1[nH]c(/C=C/c2cc(Br)ccc2OCc2cccc3ccccc23)c([N+](=O)[O-])c(=O)[nH]1` [CBK268052], the “% of control remaining” value turned out to be 92.8343%.

Take `O=C(NCCN1CCOCC1)N(c1ccccc1)c1ccccc1` [CBK270057]: the “% of control remaining” value amounted to 115.346%.

In the case of `Fc1cc(Br)ccc1-c1cn(-c2ccc3[nH]ccc3c2)nn1` [CBK113146], the “% of control remaining” value turned out to be 101.712%.

As for `CC(C)(C)c1ccc(S(=O)(=O)N2CCCC[C@H]2COC(=O)c2nccnc2C(=O)O)cc1` [CBK200065], the “% of control remaining” value was 128.192%.

In the case of `Cc1ccc2[nH]c(Cc3ccc(NC(=O)CCc4nc5ccccc5[nH]4)cc3)nc2c1` [CBK285801], the “% of control remaining” value is 140.131%.

In the case of `Cn1cc(CC2CCN(Cc3ccc(Oc4cnccn4)cc3)C2)cn1` (centres unmarked) [CBK304188], the “% of control remaining” value is listed as 111.93%.

With `N[C@H](CSCc1ccccc1)C(=O)Nc1ccc([N+](=O)[O-])cc1` [CBK074824], the “% of control remaining” value came to 99.4071%.
